Test results published in patent US11420956B2, “Ureas having Androgen Receptor degradation activity and uses thereof” (ACCUTAR BIOTECHNOLOGY INC., priority 2019, dated 2022).
The match of structure and compound is tentative.

Chains of the proteins cited; added tags and fusions are not shown.
UniProt P10275, whole entry: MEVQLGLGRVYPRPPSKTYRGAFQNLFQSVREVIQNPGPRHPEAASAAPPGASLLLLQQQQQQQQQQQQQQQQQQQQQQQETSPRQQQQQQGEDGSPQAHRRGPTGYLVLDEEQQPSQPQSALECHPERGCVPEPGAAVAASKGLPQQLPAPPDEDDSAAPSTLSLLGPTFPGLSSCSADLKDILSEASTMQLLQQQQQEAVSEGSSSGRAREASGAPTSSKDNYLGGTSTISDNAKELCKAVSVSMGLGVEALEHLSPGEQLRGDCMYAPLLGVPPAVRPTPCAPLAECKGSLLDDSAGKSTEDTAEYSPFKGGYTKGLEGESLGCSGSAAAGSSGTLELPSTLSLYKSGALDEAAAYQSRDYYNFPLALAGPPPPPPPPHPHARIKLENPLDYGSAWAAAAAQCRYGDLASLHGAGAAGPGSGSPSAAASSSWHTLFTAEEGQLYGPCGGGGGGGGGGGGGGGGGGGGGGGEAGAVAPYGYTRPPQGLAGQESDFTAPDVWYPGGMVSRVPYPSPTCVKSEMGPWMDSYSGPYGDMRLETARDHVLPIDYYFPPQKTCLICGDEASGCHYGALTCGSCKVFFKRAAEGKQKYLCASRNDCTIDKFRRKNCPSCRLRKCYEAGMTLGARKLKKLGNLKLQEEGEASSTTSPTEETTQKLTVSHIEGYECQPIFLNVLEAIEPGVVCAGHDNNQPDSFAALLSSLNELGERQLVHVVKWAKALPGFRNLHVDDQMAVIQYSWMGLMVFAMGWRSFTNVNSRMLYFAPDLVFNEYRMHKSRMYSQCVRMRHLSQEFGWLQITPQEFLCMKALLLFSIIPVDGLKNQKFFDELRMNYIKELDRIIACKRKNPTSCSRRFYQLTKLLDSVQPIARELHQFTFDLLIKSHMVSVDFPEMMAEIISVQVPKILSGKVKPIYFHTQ
UniProt P10275, whole entry T878A: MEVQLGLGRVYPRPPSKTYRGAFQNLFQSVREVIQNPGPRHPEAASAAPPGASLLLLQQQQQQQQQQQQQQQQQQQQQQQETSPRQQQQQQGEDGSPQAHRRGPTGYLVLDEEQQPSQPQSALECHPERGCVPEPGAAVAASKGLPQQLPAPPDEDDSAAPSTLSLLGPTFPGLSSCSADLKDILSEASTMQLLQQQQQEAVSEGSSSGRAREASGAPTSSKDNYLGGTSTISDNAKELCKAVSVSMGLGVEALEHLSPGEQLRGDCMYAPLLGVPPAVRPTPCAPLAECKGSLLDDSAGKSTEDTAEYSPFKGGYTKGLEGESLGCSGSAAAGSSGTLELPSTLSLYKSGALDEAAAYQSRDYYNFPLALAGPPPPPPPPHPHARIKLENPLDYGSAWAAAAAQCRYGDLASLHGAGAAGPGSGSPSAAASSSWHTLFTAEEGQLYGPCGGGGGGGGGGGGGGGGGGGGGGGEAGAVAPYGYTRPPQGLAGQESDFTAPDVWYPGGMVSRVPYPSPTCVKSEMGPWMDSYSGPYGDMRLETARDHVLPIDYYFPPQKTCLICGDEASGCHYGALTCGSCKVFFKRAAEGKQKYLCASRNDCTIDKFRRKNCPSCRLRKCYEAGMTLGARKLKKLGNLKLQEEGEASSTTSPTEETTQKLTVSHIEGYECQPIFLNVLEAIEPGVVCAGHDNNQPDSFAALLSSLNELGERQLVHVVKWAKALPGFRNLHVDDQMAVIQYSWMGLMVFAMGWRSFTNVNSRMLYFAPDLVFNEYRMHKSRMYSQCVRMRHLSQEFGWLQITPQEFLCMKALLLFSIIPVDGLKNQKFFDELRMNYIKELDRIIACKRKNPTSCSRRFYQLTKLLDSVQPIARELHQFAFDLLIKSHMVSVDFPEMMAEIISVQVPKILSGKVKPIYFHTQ

Columns and labels:
androgen receptor (AR) [1] = target: androgen receptor (AR) (Homo sapiens, UniProt P10275, T878A); experiment: AR degradation in LNCAP cells (Western blot); details: read-out: LNCAP (DC50), 24 hours after administration
Protocol: (§1) LNCAP, VCAP and 22Rv1 cells were plated in 24-well plates at 1.5×10E5 cells/well in the RPMI growth medium containing 10% FBS and 1% Penicillin Streptomycin, and then incubated at 37° C. overnight. The following day, the test compound was administered to the cells by using 1000× compound stock solution prepared in DMSO at various concentrations. After administration of the compound, the cells were then incubated at 37° C. for 24 hours. Upon completion, the cells were washed with PBS and protein was collected in Laemmli sample buffer (1×; VWR International). Proteins in cell lysate were separated by SDS-PAGE and transferred to Odyssey nitrocellulose membranes (Licor) with iblot® dry blotting transfer system (ThermoFisher). Nonspecific binding was blocked by incubating membranes with Intercept Blocking Buffer (Licor) for 1 hour at room temperature with gentle shaking. The membranes were then incubated overnight at 4° C. with Primary antibodies rabbit anti-AR (1:1,000, Cell Signaling, 5153) and mouse anti-GAPDH (1:5,000, Santa Cruz Biotechnology, sc-47724) diluted in Intercept Blocking Buffer containing 0.1% Tween 20. After washing 3 times with TBS-T, the membranes were incubated with IRDye® […] goat anti-mouse IgG (1:20,000, Licor) or IRDye® […] goat anti-rabbit IgG (1:20,000, Licor) for 1 hour. […] The bands were quantified using Image Studio™ Software (Licor). […]

androgen receptor (AR) [2] = target: androgen receptor (AR) (Homo sapiens, UniProt P10275); experiment: AR degradation in VCAP cells (Western blot); details: read-out: VCAP (DC50), 24 hours after administration
Protocol: as §1

androgen receptor (AR) [3] = experiment: AR degradation in 22Rv1 cells (Western blot); details: read-out: 22RV1 (DC50), 24 hours after administration
Protocol: as §1

Compound	DC50 (androgen receptor (AR) [1]) [nM]	DC50 (androgen receptor (AR) [2]) [nM]	DC50 (androgen receptor (AR) [3]) [nM]
COc1cc(N2C[C@@H](C)N(C(=O)Nc3cnc(N4CCC(CCN5CCN(c6ccc7c(c6)C(=O)N(C6CCC(=O)NC6=O)C7=O)CC5)CC4)nc3)C[C@@H]2C)ccc1C#N (some centres unmarked)	< 10	< 10	–
COc1cc(N2C[C@@H](C)N(C(=O)Nc3ccc(N4CCC(CN5CCN(c6ccc7c(c6)C(=O)N(C6CCC(=O)NC6=O)C7=O)CC5)CC4)c(F)c3)C[C@@H]2C)ccc1C#N (some centres unmarked)	< 10	< 10	< 10
